Experiment: Macrophage viability in the same high content assay
Conditions: mouse

CN[C@@H]1C[C@H]2O[C@@](C)([C@@H]1OC)n1c3ccccc3c3c4c(c5c6ccccc6n2c5c31)C(=O)NC4 [STA, staurosporine, reference compound]
IC50 at 72 h: 3.4 ± 1.3 nM
